Among the data in patent US20080248034A1 are binding values, retold here.

The chains behind the UniProt entries cited, without tags or fusion partners. Where a name states a change or a piece, a line headed by the entry shows the natural chain unless it says otherwise.
UniProt P02751: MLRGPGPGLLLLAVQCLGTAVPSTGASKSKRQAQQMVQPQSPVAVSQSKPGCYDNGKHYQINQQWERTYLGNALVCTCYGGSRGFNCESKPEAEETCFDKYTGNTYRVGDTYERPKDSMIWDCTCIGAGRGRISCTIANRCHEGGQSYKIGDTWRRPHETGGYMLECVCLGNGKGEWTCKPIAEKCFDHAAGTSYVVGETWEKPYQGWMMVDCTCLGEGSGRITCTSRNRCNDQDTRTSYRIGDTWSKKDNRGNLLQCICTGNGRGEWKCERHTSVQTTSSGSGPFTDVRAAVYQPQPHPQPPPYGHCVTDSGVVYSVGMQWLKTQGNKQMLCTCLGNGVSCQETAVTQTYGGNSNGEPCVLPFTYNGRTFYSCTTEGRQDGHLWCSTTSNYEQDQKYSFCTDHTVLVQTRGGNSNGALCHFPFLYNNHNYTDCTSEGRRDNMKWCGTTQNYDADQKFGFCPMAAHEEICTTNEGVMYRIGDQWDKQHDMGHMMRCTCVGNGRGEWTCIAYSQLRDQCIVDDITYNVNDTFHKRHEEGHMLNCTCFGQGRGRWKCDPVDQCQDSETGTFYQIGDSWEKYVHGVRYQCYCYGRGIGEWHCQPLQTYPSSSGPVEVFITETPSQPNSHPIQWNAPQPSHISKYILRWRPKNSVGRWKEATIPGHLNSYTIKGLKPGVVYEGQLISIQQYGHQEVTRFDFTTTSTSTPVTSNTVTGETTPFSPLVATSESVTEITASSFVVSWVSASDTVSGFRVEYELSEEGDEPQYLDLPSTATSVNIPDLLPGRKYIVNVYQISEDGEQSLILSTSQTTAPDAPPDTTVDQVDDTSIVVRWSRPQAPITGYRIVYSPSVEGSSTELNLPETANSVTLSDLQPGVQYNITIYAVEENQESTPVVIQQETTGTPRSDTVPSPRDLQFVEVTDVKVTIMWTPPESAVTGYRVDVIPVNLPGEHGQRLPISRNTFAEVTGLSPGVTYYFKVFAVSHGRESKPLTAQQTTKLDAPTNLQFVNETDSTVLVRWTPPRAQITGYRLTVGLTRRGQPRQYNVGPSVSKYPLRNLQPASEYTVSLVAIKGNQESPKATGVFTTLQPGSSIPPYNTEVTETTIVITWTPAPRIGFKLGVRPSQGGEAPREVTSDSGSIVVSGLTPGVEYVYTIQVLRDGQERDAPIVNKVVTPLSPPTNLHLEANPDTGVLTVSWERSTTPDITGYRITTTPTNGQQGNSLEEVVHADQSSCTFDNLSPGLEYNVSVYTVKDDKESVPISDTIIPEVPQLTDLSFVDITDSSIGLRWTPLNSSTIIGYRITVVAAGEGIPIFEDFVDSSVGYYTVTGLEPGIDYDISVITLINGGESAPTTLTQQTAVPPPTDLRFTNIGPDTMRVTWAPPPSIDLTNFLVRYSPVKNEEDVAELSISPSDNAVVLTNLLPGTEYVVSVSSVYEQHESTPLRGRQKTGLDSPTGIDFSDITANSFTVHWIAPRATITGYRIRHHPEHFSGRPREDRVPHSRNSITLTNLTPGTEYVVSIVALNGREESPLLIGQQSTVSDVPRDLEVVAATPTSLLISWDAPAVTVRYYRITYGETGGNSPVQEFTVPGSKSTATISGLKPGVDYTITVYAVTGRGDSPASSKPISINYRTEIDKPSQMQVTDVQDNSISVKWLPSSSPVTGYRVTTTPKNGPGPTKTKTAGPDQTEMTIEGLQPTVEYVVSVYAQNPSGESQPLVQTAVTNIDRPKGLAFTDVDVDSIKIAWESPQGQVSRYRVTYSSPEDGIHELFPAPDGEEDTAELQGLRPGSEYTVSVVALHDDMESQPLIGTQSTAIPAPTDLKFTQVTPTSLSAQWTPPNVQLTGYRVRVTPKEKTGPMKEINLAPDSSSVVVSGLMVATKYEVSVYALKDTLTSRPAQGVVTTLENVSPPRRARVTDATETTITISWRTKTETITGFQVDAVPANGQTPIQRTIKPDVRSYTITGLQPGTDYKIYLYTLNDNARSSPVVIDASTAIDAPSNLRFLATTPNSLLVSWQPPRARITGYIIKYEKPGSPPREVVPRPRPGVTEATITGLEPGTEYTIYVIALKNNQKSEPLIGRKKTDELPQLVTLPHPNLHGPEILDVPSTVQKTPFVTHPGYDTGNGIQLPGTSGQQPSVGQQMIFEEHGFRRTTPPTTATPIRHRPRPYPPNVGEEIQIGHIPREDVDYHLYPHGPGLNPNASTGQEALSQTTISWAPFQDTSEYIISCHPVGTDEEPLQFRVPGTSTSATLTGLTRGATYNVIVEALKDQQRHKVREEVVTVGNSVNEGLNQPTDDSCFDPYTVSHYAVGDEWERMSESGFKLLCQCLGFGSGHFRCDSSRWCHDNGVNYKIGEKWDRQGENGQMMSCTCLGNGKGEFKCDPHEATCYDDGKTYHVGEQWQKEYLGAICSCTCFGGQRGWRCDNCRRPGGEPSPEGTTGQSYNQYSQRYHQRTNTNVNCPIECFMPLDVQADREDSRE

The experiment deals with Fibronectin (FN), full length, purified from human plasma (human) (UniProt P02751). Nature of the experiment: ELISA, FN-coated plate. (In an ELISA, binding on a coated surface is turned into a signal by an enzyme label.)

These are yes or no findings as the source states them, for the method shown. Some results given as binding are weak or reduced against the parent protein; the word gives no strength. Tags and fused reporters may be left off the sequences shown.

B1: fusion protein containing the murine gamma heavy chain and only the lectin domain of endosialin (Fc fusion, UniProt Q9HCU0 18-156, looked up, not shown: a dimerising Fc or GST)
chain: QDPWAAEPRAACGPSSCYALFPRRRTFLEAWRACRELGGDLATPRTPEEAQRVDSLVGAGPASRLLWIGLQRQARQCQLQRPLRGFTWTTGDQDTAFTNWAQPASGGPCPAQRCVALEASGEHRWLEGSCTLAVDGYLC
For B1, the binding result is given as “binds”.
